{"source": "patent US20080260845A1", "about": "“MULTIPLE ACTIVE DRUG RESIN CONJUGATE” (priority 2003, published 2008)", "origin": "cited, not measured here", "conditions": "compared with pseudoephedrine alone, cited from earlier work", "note": "Like-named read-outs stand apart in the source and are kept apart here.", "data": [{"smiles": "CN[C@@H](C)[C@@H](O)c1ccccc1", "note": "[pseudoephedrine]", "values": [{"measurement": "availability of pseudoephedrine", "setting": "after the first hour and a half", "value": "substantial increase in availability"}, {"measurement": "availability of pseudoephedrine", "setting": "during the first hour and a half after dosage", "value": "substantial decrease in the availability"}]}]}
